Measured data: PubChem BioAssay AID686938 (Drosophila RNAi Screening Center, 2013)

Test: 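Fly genes required for calcium entry once internal stores are emptied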 (primary screen)
System: Drosophila S2R+ cells
Reagents: long dsRNA against Drosophila genes, about 0.25 µg dsRNA per well, roughly 10,000 cells
Time to read-out: 5 days of knock-down before the calcium assay
Challenge: thapsigargin (SERCA pump blocker) to empty calcium stores; entry signal taken 4 min after adding it
Measured: 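Duplicate raw fluo-4 intensities per well from a plate reader, at rest and four minutes after thapsigargin emptied calcium stores; entry-to-rest ratio filled for only some wells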
Reading the numbers: calcium entry signal: higher = stronger calcium signal after store depletion; resting calcium signal: higher = higher resting calcium signal
Rule for the call: 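Hit if the duplicate-averaged plate z-score for entry over resting signal is under −3; wells with weak total dye signal (Fmax z < −2) or more than 5 off-targets removed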
Calls: active = strongly reduced calcium entry; inactive = no strong reduction
The screen tested about 23,000 reagents; shown is a random part of those that have a named target and a result. In the full data, 75 (0.33%) were called active. 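Raw plate signals without normalisation; calls rest on plate z-scores that were not deposited; ratio present for only 364 wells.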 A number with no mark means an inactive call. No sequences are given here. Not given: the dose of the treatment.

gene	DRSC id	calcium entry signal, replicate 1 (fluorescence units)	calcium entry signal, replicate 2 (fluorescence units)	resting calcium signal, replicate 1 (fluorescence units)	resting calcium signal, replicate 2 (fluorescence units)
CG43316	DRSC06297	2.78e7	4.06e7	1.46e7	1.85e7
GstT1 (Glutathione S transferase T1)	DRSC06243	4.27e7	4.51e7	1.98e7	1.98e7
Whamy (WHAMM and JMY related)	DRSC14574	4.09e7	3.69e7	2.10e7	1.82e7
CG11145	DRSC06049	5.86e7	4.32e7	2.55e7	1.83e7
Cdlc2 (Cytoplasmic dynein light chain 2)	DRSC00743	4.22e7		2.18e7	
CG9452	DRSC11075	3.06e7	4.97e7	1.39e7	2.08e7
CG9452	DRSC23344	3.15e7	3.33e7	2.03e7	1.40e7
RpS3 (Ribosomal protein S3)	DRSC16838	1.16e7	1.02e7	8.98e6	8.32e6
Rsph3 (Radial spoke head protein 3)	DRSC09696	5.30e7	3.41e7	3.16e7	1.45e7
Rsph3 (Radial spoke head protein 3)	DRSC10211	3.84e7	5.80e7	1.92e7	2.50e7
CG9672	DRSC20201	2.10e7	2.37e7	1.15e7	1.12e7
HP1c (Heterochromatin Protein 1c)	DRSC16166	4.33e7	5.57e7	1.93e7	2.71e7
Vps28 (Vacuolar protein sorting 28)	DRSC06168	3.49e7	4.50e7	2.14e7	2.31e7
CG43308	DRSC05893	2.13e7	3.71e7	1.04e7	1.75e7
bip1	DRSC11327	4.41e7	3.50e7	3.13e7	1.60e7
Fdh (Formaldehyde dehydrogenase)	DRSC16670	4.39e7	4.91e7	1.90e7	2.06e7
CG42266	DRSC21577	3.39e7	3.15e7	2.11e7	1.48e7
CG42266	DRSC21957	3.83e7	8.91e7	1.86e7	3.82e7
PHDP (Putative homeodomain protein)	DRSC04635	4.60e7	4.66e7	2.19e7	2.29e7
peg (pegasus)	DRSC15216	5.53e7	4.21e7	4.51e7	2.07e7
Mayo	DRSC14300	4.65e7	5.05e7	2.43e7	2.16e7
CG13108	DRSC02206	3.38e7	6.16e7	1.73e7	2.60e7
CG11837	DRSC14397	2.05e7	2.27e7	1.05e7	1.22e7
sesB (stress-sensitive B)	DRSC20371	3.71e7	3.55e7	1.82e7	1.96e7

4 entries from above, set out differently:
{"gene":"RpS3 (Ribosomal protein S3)","DRSC id":"DRSC16838","calcium entry signal, replicate 1 (fluorescence units)":1.16e7,"calcium entry signal, replicate 2 (fluorescence units)":1.02e7,"resting calcium signal, replicate 1 (fluorescence units)":8.98e6,"resting calcium signal, replicate 2 (fluorescence units)":8.32e6}
{"gene":"Rsph3 (Radial spoke head protein 3)","DRSC id":"DRSC09696","calcium entry signal, replicate 1 (fluorescence units)":5.30e7,"calcium entry signal, replicate 2 (fluorescence units)":3.41e7,"resting calcium signal, replicate 1 (fluorescence units)":3.16e7,"resting calcium signal, replicate 2 (fluorescence units)":1.45e7}
{"gene":"Rsph3 (Radial spoke head protein 3)","DRSC id":"DRSC10211","calcium entry signal, replicate 1 (fluorescence units)":3.84e7,"calcium entry signal, replicate 2 (fluorescence units)":5.80e7,"resting calcium signal, replicate 1 (fluorescence units)":1.92e7,"resting calcium signal, replicate 2 (fluorescence units)":2.50e7}
{"gene":"CG9672","DRSC id":"DRSC20201","calcium entry signal, replicate 1 (fluorescence units)":2.10e7,"calcium entry signal, replicate 2 (fluorescence units)":2.37e7,"resting calcium signal, replicate 1 (fluorescence units)":1.15e7,"resting calcium signal, replicate 2 (fluorescence units)":1.12e7}
